These results are taken from publication PMC12456409.

Sequences of proteins named here, by UniProt entry; tags and fusion partners are left off. Residues count along the entry.
UniProt P16070, residues 21-742: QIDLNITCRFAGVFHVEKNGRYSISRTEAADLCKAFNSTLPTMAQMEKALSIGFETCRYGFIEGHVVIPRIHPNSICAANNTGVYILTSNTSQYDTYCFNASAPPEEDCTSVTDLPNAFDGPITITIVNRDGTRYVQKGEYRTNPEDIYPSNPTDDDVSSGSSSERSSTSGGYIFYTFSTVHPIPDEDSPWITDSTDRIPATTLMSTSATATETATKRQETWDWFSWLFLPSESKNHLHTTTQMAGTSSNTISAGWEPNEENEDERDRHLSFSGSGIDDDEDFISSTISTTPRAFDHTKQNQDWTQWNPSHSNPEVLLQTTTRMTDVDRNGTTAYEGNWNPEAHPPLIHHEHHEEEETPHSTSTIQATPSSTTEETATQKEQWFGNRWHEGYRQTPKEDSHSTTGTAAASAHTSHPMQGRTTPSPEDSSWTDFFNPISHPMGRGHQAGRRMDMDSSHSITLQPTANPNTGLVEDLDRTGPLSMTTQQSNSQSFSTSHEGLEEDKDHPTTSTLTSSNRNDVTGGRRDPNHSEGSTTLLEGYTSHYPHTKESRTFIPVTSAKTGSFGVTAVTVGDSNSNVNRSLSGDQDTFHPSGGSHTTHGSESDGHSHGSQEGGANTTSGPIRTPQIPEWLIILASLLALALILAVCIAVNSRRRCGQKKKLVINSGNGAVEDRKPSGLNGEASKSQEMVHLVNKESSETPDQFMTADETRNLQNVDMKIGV
UniProt P61586: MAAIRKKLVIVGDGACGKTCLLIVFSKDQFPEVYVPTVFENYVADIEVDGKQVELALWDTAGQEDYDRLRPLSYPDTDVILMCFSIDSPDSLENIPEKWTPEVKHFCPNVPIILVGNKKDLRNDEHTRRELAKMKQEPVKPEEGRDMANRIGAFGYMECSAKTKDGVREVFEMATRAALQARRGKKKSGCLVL
UniProt Q15836: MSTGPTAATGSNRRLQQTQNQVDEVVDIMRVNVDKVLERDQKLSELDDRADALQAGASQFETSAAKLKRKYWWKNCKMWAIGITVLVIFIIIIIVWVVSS

Assay [1] concerns the target CD44 (human (endogenous in moDCs)) (UniProt P16070). Briefly: proximity ligation; Duolink In Situ PLA Orange on PFA-fixed, LPS-matured moDCs on coverslips; endogenous proteins, isotypes as negative control; NT or LGALS9 siRNA cells, with or without 5 ug/ml RhoA activator II for 3 h.
The target of assay [2] is Galectin-9 (human (endogenous in moDCs)) (UniProt O00182). Briefly: co-IP; IP with a galectin-9-specific antibody or isotype control from whole-cell lysates of day 7 matured moDCs; blots for galectin-9, Vamp-3 and CD44.

Results are given in words; binding and its absence hold for the method and conditions named. In cells and extracts the contact can be indirect. Some binding calls cover weakened binding; strength is not graded here.

Turning to RhoA (from UniProt P61586 1-193), the binding entry in assay [1] was “binds”.

Consider Vamp-3 (from UniProt Q15836 1-100), for which, in assay [2], the binding entry was “binds”.

With “CD44 (from UniProt P16070 21-742) (receptor)”, the binding result in assay [2] is given as “binds”.
